Results are given in words; binding and its absence hold for the method and conditions named. In cells and extracts the contact can be indirect. These calls come from enrichment with a bait or labelling near it, and not all partners need be listed. Where a sequence is shown, tags or fusion partners need not be part of it.
T1: UBE2QL1-myc-APEX2 (human) (UniProt A1L167)
T1 sequence: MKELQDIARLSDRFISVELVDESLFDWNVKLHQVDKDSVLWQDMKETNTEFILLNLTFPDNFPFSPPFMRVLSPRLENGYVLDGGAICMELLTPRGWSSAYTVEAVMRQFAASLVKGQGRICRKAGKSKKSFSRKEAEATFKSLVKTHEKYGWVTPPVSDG

The chains behind the UniProt entries cited, without tags or fusion partners. Residues count along the entry.
UniProt O15118, residues 23-1278: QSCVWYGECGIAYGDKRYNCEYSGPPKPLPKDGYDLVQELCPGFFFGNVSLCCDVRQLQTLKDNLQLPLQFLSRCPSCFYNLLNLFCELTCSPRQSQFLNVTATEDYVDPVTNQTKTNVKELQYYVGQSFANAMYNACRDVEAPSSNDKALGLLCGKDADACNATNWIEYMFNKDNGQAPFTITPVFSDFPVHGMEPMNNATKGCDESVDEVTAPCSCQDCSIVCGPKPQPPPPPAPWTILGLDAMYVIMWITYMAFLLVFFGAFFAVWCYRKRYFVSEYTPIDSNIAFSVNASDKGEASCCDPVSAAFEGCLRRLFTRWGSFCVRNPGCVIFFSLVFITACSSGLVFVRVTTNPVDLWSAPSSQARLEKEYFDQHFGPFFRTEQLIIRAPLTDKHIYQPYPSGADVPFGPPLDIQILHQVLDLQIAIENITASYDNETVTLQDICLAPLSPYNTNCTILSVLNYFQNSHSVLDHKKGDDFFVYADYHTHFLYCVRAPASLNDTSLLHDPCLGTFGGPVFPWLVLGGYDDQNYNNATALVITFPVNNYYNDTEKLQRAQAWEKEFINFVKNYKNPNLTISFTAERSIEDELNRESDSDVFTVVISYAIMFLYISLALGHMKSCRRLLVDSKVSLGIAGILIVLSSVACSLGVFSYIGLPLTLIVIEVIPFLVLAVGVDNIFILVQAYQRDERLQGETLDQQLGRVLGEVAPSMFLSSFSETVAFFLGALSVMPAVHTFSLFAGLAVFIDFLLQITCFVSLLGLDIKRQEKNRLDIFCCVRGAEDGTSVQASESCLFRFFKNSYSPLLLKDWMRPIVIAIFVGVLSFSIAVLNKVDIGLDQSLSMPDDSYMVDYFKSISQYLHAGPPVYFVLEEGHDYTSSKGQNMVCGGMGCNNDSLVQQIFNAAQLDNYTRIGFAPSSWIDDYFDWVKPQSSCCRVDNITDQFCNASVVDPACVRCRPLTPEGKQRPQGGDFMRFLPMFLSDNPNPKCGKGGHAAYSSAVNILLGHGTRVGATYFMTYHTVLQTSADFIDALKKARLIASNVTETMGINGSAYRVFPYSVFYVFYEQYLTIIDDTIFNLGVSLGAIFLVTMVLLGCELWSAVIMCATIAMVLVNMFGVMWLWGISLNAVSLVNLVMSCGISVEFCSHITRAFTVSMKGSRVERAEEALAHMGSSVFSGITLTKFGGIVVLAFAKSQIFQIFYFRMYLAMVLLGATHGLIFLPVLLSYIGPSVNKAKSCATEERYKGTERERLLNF


Each molecule was assayed against T1, UBE2QL1-myc-APEX2 (human) (assay: proximity labelling; UBE2QL1-APEX2 stably expressed in HeLa cells; 500 uM biotin phenol for 30 min, H2O2 pulse 1 min at room temperature; SILAC comparison of LLOMe-treated (250 uM, 3 h, heavy) against EtOH-treated (light) cells; lysis in APEX-RIPA, streptavidin agarose purification, mass spectrometry; four replicates).

Molecule | binding
NPC1 (from UniProt O15118 23-1278) | binds
VCP/p97 (from UniProt P55072 1-806) (enzyme) | binds
LIMP2 (also called SCARB2) (protein, UniProt Q14108 1-478) MGRCCFYTAGTLSLLLLVTSVTLLVARVFQKAVDQSIEKKIVLRNGTEAFDSWEKPPLPVYTQFYFFNVTNPEEILRGETPRVEEVGPYTYRELRNKANIQFGDNGTTISAVSNKAYVFERDQSVGDPKIDLIRTLNIPVLTVIEWSQVHFLREIIEAMLKAYQQKLFVTHTVDELLWGYKDEILSLIHVFRPDISPYFGLFYEKNGTNDGDYVFLTGEDSYLNFTKIVEWNGKTSLDWWITDKCNMINGTDGDSFHPLITKDEVLYVFPSDFCRSVYITFSDYESVQGLPAFRYKVPAEILANTSDNAGFCIPEGNCLGSGVLNVSICKNGAPIIMSFPHFYQADERFVSAIEGMHPNQEDHETFVDINPLTGIILKAAKRFQINIYVKKLDDFVETGDIRTMVFPVMYLNESVHIDKETASRLKSMINTTLIITNIPYIIMALGVFFGLVFTWLACKGQGSMDEGTADERAPLIRT | binds

— article PMC6776906
